Results reported in publication PMC7252619 (PLoS ONE, 2020).

What was measured:
human CD19+ B cells = test: B-cell assay: IgG production of ODN2006-stimulated primary B cells (AlphaLISA); assay type: cell-based; conditions: 168 h, ODN2006 0.1 μM, 7 days, mean of 4 independent experiments
[1] = test system: human PBMCs (responder cells) with RPMI1788 stimulator cells; test: Mixed Lymphocyte Reaction (MLR, T cell assay), 3H-thymidine incorporation; assay type: cell-based; conditions: for IC50: Homo sapiens, RPMI-1788, mean of 4 independent measures, read-out: T-cell efficacy, MLR IC 50 (µM) Mean; for Selectivity Index (SI) MLR/B-cell: ratio of IC50 values

Row | IC50 (human CD19+ B cells) | SMILES | IC50 [1] | Selectivity Index (SI) MLR/B-cell [1]
1 | 6.12 µM | CN1CCN(CCCN2c3ccccc3Sc3ccc(Cl)cc32)CC1 [Prochlorperazine, reference compound] | 4.73 µM | 0.77
2 | 0.432 µM | C[C@@H]1CCN(C(=O)CC#N)C[C@@H]1N(C)c1ncnc2[nH]ccc12 [Tofacitinib] | 0.264 µM | 0.61
